Results on one substance are retold here after article PMC5964149.

Protein sequences, listed by entry. Tags and fused reporters are not part of them.
UniProt P35222: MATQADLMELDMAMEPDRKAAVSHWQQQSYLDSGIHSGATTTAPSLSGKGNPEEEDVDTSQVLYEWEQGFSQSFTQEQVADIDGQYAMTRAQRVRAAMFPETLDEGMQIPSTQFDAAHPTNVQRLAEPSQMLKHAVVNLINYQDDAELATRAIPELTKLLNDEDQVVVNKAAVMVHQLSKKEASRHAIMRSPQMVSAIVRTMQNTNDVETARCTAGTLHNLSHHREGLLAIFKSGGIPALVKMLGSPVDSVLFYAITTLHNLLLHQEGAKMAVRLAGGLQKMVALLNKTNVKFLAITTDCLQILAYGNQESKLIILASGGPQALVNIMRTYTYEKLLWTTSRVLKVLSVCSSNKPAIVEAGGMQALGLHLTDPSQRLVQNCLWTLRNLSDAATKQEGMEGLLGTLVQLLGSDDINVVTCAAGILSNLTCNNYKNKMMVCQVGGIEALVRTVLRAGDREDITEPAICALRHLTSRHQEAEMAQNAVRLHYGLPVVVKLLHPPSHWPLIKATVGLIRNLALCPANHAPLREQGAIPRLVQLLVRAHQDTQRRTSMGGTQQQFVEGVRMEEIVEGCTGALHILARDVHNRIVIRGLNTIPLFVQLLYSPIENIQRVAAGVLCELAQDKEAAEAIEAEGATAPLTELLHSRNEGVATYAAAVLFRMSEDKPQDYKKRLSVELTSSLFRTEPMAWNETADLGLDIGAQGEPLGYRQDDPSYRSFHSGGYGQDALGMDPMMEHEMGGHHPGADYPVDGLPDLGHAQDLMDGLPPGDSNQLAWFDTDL
UniProt O15169: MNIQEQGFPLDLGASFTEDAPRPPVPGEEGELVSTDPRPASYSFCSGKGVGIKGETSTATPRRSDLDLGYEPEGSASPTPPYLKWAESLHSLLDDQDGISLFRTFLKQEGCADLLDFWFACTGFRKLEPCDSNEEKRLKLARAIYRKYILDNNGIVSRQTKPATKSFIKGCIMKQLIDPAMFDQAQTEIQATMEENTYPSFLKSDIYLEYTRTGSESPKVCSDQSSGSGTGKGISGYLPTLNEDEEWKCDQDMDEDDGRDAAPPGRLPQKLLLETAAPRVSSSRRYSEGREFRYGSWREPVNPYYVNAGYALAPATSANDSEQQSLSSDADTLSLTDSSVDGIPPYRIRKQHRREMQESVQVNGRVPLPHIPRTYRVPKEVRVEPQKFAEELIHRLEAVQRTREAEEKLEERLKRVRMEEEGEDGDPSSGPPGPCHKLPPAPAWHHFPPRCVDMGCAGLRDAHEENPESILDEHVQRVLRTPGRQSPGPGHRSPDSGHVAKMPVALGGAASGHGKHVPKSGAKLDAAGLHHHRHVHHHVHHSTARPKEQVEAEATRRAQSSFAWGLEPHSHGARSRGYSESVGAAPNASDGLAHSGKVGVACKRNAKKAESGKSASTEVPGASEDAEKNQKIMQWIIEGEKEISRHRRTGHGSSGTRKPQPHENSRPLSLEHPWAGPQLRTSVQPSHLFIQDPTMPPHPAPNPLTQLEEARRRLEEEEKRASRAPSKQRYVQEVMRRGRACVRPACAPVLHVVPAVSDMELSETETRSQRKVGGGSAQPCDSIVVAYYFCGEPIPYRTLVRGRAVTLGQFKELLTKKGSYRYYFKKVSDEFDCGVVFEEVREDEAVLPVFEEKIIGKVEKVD

No constants are given. Whether binding was seen depends on the method and setting. In cells and extracts the contact can be indirect. Some entries that bind do so weakly or less than the wild type.

Assay [1] deals with β-catenin (human (endogenous in HEK293T and SW480)) (UniProt P35222). Briefly: co-IP; endogenous proteins; HEK293T cells treated with 4 μM PF for 12 h, then with or without 10 μM MG132 for 8 h; β-catenin immunoprecipitated with a β-catenin antibody, protein A/G beads, immunoblot. (Immunoblotting shows a protein as a band on a membrane.)
For assay [2] the target is unchanged. Nature of the assay: co-IP; endogenous proteins; SW480 cells with or without 4 μM PF (some panels with 10 μM MG132 or YAP siRNA); lysates immunoprecipitated with β-catenin, β-TrCP, YAP or Axin1 antibody, protein A/G beads, immunoblot.

Regarding Axin1 (from UniProt O15169 1-862), the binding entry in assay [1] and in assay [2] was “binds” in each case.
